In the supplement of paper PMC8728848:
The list shows a part of the results.

Assays:
Assay in all cases: glycan array binding signal (z-score within array); higher = stronger binding
Conditions in all cases: glycan notation: IUPAC condensed, linker removed
[1] = molecular target: Neu5Ac(a2-3)Gal(b1-4)GlcNAc(b1-3)[Neu5Ac(a2-3)Gal(b1-4)GlcNAc(b1-6)]GalNAc
Method in brief: (§1)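 The Consortium for Functional Glycomics database supplied 3228 glycan arrays, of which those lacking an available protein sequence were dropped. The binding signal, a within-array Z-score, was averaged across arrays of the same protein sequence and across linkers. Negative scores can be read as non-binding.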

[2] = molecular target: Neu5Ac(a2-3)Gal(b1-4)GlcNAc(b1-6)GalNAc
Method in brief: as §1

[3] = molecular target: Neu5Ac(a2-3)Gal(b1-4)GlcNAc(b1-6)[Gal(b1-3)]GalNAc
Method in brief: as §1

[4] = molecular target: Neu5Ac(a2-3)Gal(b1-4)GlcNAc(b1-6)[Neu5Ac(a2-3)Gal(b1-3)]GalNAc
Method in brief: as §1

[5] = molecular target: Neu5Ac(a2-3)Gal(b1-4)GlcNAc6S
Method in brief: as §1

[6] = molecular target: Neu5Ac(a2-3)Gal(b1-4)[Fuc(a1-3)]GlcNAc
Method in brief: as §1

[7] = molecular target: Neu5Ac(a2-3)Gal(b1-4)[Fuc(a1-3)]GlcNAc(b1-2)Man
Method in brief: as §1

[8] = molecular target: Neu5Ac(a2-3)Gal(b1-4)[Fuc(a1-3)]GlcNAc(b1-3)Gal
Method in brief: as §1

[9] = molecular target: Neu5Ac(a2-3)Gal(b1-4)[Fuc(a1-3)]GlcNAc(b1-3)Gal(b1-4)GlcNAc
Method in brief: as §1

[10] = molecular target: Neu5Ac(a2-3)Gal(b1-4)[Fuc(a1-3)]GlcNAc(b1-3)Gal(b1-4)[Fuc(a1-3)]GlcNAc(b1-3)Gal(b1-4)[Fuc(a1-3)]GlcNAc
Method in brief: as §1

[11] = molecular target: Neu5Ac(a2-3)Gal(b1-4)[Fuc(a1-3)]GlcNAc(b1-3)GalNAc
Method in brief: as §1

[12] = molecular target: Neu5Ac(a2-3)Gal(b1-4)[Fuc(a1-3)]GlcNAc(b1-6)[Gal(b1-3)]GalNAc
Method in brief: as §1

[13] = molecular target: Neu5Ac(a2-3)Gal(b1-4)[Fuc(a1-3)]GlcNAc(b1-6)[Neu5Ac(a2-3)Gal(b1-3)]GalNAc
Method in brief: as §1

[14] = molecular target: Neu5Ac(a2-3)Gal(b1-4)[Fuc(a1-3)]GlcNAc6S
Method in brief: as §1

[15] = molecular target: Neu5Ac(a2-3)Gal6S(b1-4)GlcNAc
Method in brief: as §1

[16] = molecular target: Neu5Ac(a2-3)Gal6S(b1-4)[Fuc(a1-3)]GlcNAc
Method in brief: as §1

[17] = molecular target: Neu5Ac(a2-3)GalNAc
Method in brief: as §1

[18] = molecular target: Neu5Ac(a2-3)GalNAc(b1-4)GlcNAc
Method in brief: as §1

[19] = molecular target: Neu5Ac(a2-3)[GalNAc(b1-4)]Gal(b1-4)Glc
Method in brief: as §1

[20] = molecular target: Neu5Ac(a2-3)[GalNAc(b1-4)]Gal(b1-4)GlcNAc
Method in brief: as §1

[21] = molecular target: Neu5Ac(a2-3)[GalNAc(b1-4)]Gal(b1-4)GlcNAc(b1-3)GalNAc
Method in brief: as §1

[22] = molecular target: Neu5Ac(a2-3)[Neu5Ac(a2-6)]GalNAc
Method in brief: as §1

[23] = molecular target: Neu5Ac(a2-6)Gal
Method in brief: as §1

[24] = molecular target: Neu5Ac(a2-6)Gal(b1-3)GlcNAc(b1-3)[Gal(b1-4)GlcNAc(b1-6)]Gal(b1-4)Glc
Method in brief: as §1

[25] = molecular target: Neu5Ac(a2-6)Gal(b1-4)Glc
Method in brief: as §1

[26] = molecular target: Neu5Ac(a2-6)Gal(b1-4)GlcNAc
Method in brief: as §1

[27] = molecular target: Neu5Ac(a2-6)Gal(b1-4)GlcNAc(b1-2)Man
Method in brief: as §1

[28] = molecular target: Neu5Ac(a2-6)Gal(b1-4)GlcNAc(b1-2)Man(a1-3)Man(b1-4)GlcNAc(b1-4)GlcNAc
Method in brief: as §1

[29] = molecular target: Neu5Ac(a2-6)Gal(b1-4)GlcNAc(b1-2)Man(a1-3)[Gal(b1-4)GlcNAc(b1-2)Man(a1-6)]Man(b1-4)GlcNAc(b1-4)GlcNAc
Method in brief: as §1

[30] = molecular target: Neu5Ac(a2-6)Gal(b1-4)GlcNAc(b1-2)Man(a1-3)[GlcNAc(b1-2)Man(a1-6)]Man(b1-4)GlcNAc(b1-4)GlcNAc
Method in brief: as §1

[31] = molecular target: Neu5Ac(a2-6)Gal(b1-4)GlcNAc(b1-2)Man(a1-3)[GlcNAc(b1-4)][Neu5Ac(a2-6)Gal(b1-4)GlcNAc(b1-2)Man(a1-6)]Man(b1-4)GlcNAc(b1-4)GlcNAc
Method in brief: as §1

[32] = molecular target: Neu5Ac(a2-6)Gal(b1-4)GlcNAc(b1-2)Man(a1-3)[Man(a1-6)]Man(b1-4)GlcNAc(b1-4)GlcNAc
Method in brief: as §1

[33] = molecular target: Neu5Ac(a2-6)Gal(b1-4)GlcNAc(b1-2)Man(a1-3)[Neu5Ac(a2-3)Gal(b1-4)GlcNAc(b1-2)Man(a1-6)]Man(b1-4)GlcNAc(b1-4)GlcNAc
Method in brief: as §1

[34] = molecular target: Neu5Ac(a2-6)Gal(b1-4)GlcNAc(b1-2)Man(a1-3)[Neu5Ac(a2-6)Gal(b1-4)GlcNAc(b1-2)Man(a1-6)]Man(b1-4)GlcNAc(b1-4)GlcNAc
Method in brief: as §1

[35] = molecular target: Neu5Ac(a2-6)Gal(b1-4)GlcNAc(b1-2)Man(a1-3)[Neu5Ac(a2-6)Gal(b1-4)GlcNAc(b1-2)Man(a1-6)]Man(b1-4)GlcNAc(b1-4)[Fuc(a1-6)]GlcNAc
Method in brief: as §1

[36] = molecular target: Neu5Ac(a2-6)Gal(b1-4)GlcNAc(b1-2)Man(a1-6)Man(b1-4)GlcNAc(b1-4)GlcNAc
Method in brief: as §1

[37] = molecular target: Neu5Ac(a2-6)Gal(b1-4)GlcNAc(b1-2)Man(a1-6)[Gal(b1-4)GlcNAc(b1-2)Man(a1-3)]Man(b1-4)GlcNAc(b1-4)GlcNAc
Method in brief: as §1

[38] = molecular target: Neu5Ac(a2-6)Gal(b1-4)GlcNAc(b1-2)Man(a1-6)[GlcNAc(b1-2)Man(a1-3)]Man(b1-4)GlcNAc(b1-4)GlcNAc
Method in brief: as §1

[39] = molecular target: Neu5Ac(a2-6)Gal(b1-4)GlcNAc(b1-2)Man(a1-6)[Man(a1-3)]Man(b1-4)GlcNAc(b1-4)GlcNAc
Method in brief: as §1

[40] = molecular target: Neu5Ac(a2-6)Gal(b1-4)GlcNAc(b1-2)[Neu5Ac(a2-6)Gal(b1-4)GlcNAc(b1-4)]Man(a1-3)[GlcNAc(b1-4)][Neu5Ac(a2-6)Gal(b1-4)GlcNAc(b1-2)[Neu5Ac(a2-6)Gal(b1-4)GlcNAc(b1-6)]Man(a1-6)]Man(b1-4)GlcNAc(b1-4)GlcNAc
Method in brief: as §1

[41] = molecular target: Neu5Ac(a2-6)Gal(b1-4)GlcNAc(b1-2)[Neu5Ac(a2-6)Gal(b1-4)GlcNAc(b1-4)]Man(a1-3)[GlcNAc(b1-4)][Neu5Ac(a2-6)Gal(b1-4)GlcNAc(b1-4)Man(a1-6)]Man(b1-4)GlcNAc(b1-4)GlcNAc
Method in brief: as §1

[42] = molecular target: Neu5Ac(a2-6)Gal(b1-4)GlcNAc(b1-2)[Neu5Ac(a2-6)Gal(b1-4)GlcNAc(b1-6)]Man(a1-6)[Neu5Ac(a2-6)Gal(b1-4)GlcNAc(b1-2)Man(a1-3)][GlcNAc(b1-4)]Man(b1-4)GlcNAc(b1-4)GlcNAc
Method in brief: as §1

[43] = molecular target: Neu5Ac(a2-6)Gal(b1-4)GlcNAc(b1-3)Gal(b1-3)GlcNAc
Method in brief: as §1

[44] = molecular target: Neu5Ac(a2-6)Gal(b1-4)GlcNAc(b1-3)Gal(b1-4)GlcNAc
Method in brief: as §1

[45] = molecular target: Neu5Ac(a2-6)Gal(b1-4)GlcNAc(b1-3)Gal(b1-4)GlcNAc(b1-2)Man(a1-3)[Neu5Ac(a2-6)Gal(b1-4)GlcNAc(b1-3)Gal(b1-4)GlcNAc(b1-2)Man(a1-6)]GalNAc
Method in brief: as §1

[46] = molecular target: Neu5Ac(a2-6)Gal(b1-4)GlcNAc(b1-3)Gal(b1-4)GlcNAc(b1-3)Gal(b1-4)GlcNAc
Method in brief: as §1

B1: XTP3-B-MRH1 (Homo sapiens), Q96DZ1 (protein)
chain: LLEPLFKQSSCSYRIESYWTYEVCHGKHIRQYHEEKETGQKINIHEYYLGNMLAKNLLFEKEREAEEKEKSNEIPTKNIEGQMTPYYPVGMGNGTPCSLKQNRPRSSTVMYICHPESKHEILSVAEVTTCEYEVVILTPLLCSHPKYRFRA
glycan array binding signal (z-score) [1]: 0.882
glycan array binding signal (z-score) [2]: -1.22
glycan array binding signal (z-score) [3]: 0.048
glycan array binding signal (z-score) [4]: 0.576
glycan array binding signal (z-score) [5]: 1.4
glycan array binding signal (z-score) [6]: -0.083
glycan array binding signal (z-score) [7]: -1.1
glycan array binding signal (z-score) [8]: 0.417
glycan array binding signal (z-score) [9]: 1.37
glycan array binding signal (z-score) [10]: -0.381
glycan array binding signal (z-score) [11]: 2.68
glycan array binding signal (z-score) [12]: -0.365
glycan array binding signal (z-score) [13]: 1.34
glycan array binding signal (z-score) [14]: -0.16
glycan array binding signal (z-score) [15]: 0.185
glycan array binding signal (z-score) [16]: -0.569
glycan array binding signal (z-score) [17]: -1.08
glycan array binding signal (z-score) [18]: -0.164
glycan array binding signal (z-score) [19]: -0.491
glycan array binding signal (z-score) [20]: -0.172
glycan array binding signal (z-score) [21]: -1.31
glycan array binding signal (z-score) [22]: 0.205
glycan array binding signal (z-score) [23]: 0.933
glycan array binding signal (z-score) [24]: -1.11
glycan array binding signal (z-score) [25]: 1.31
glycan array binding signal (z-score) [26]: 0.75
glycan array binding signal (z-score) [27]: 1.44
glycan array binding signal (z-score) [28]: 2.43
glycan array binding signal (z-score) [29]: -0.887
glycan array binding signal (z-score) [30]: 0.279
glycan array binding signal (z-score) [31]: 1.39
glycan array binding signal (z-score) [32]: -0.3
glycan array binding signal (z-score) [33]: -1.09
glycan array binding signal (z-score) [34]: -0.276
glycan array binding signal (z-score) [35]: 0.873
glycan array binding signal (z-score) [36]: 1.26
glycan array binding signal (z-score) [37]: 0.711
glycan array binding signal (z-score) [38]: -0.61
glycan array binding signal (z-score) [39]: 0.981
glycan array binding signal (z-score) [40]: -0.496
glycan array binding signal (z-score) [41]: -0.682
glycan array binding signal (z-score) [42]: -0.198
glycan array binding signal (z-score) [43]: -0.136
glycan array binding signal (z-score) [44]: 0.302
glycan array binding signal (z-score) [45]: -1.07
glycan array binding signal (z-score) [46]: -1.09
